The target in test [1] is Recombinant human IL-33 (construct not named in the example) (human) (UniProt O95760). The experiment in a line: Octet RED 384, scFv periprep on Ni-NTA sensor, IL-33 200 nM. In general terms: Biolayer interferometry detects binding as a change in optical thickness at a sensor tip.
The target in test [2] is H338L293 (SEQ ID NOs 182 and 187). The experiment in a line: Biacore T100, IgG captured on Protein G', peptide as analyte. Background: In SPR one partner is held on a chip, and binding of the other changes the refractive index at the surface.
In test [3] the target is T1, Human IL-33 Flag®His (human).
T1 sequence: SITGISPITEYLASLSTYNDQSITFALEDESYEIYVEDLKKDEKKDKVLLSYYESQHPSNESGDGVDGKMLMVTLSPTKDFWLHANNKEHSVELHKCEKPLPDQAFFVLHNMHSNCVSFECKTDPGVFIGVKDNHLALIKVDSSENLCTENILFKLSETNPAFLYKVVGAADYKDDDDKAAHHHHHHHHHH
Nature of the test: HTRF: IL-33FH binding to biotinylated ST2-Fc, IgG titrated; directly competitive (B) or after 18 h pre-incubation of IgG with IL-33 (C).

Test [4] has the same target. The experiment in a line: size exclusion chromatography of IL-33:IgG complexes.

No constants are given. Whether binding was seen depends on the method and setting. Some binding calls cover weakened binding; strength is not graded here. For part of these data: Tags and fused reporters may be left off the sequences shown.

B1: IL330428 (antibody, V domains shown)
VH: QVQLVQSGAETKKSGASVKVSCKTSGYTFDNFGISWVRQAPGQGLEWIGWISIYNGNTDYAQNLRGRLTLTTDTSTSTVHMELKSLRSDDTAIYYCARGGGISSSWTPDYYFDYWGQGTLVTVSS
VL: SSELTQDPAVSVASGQTVRLTCQGDTLRNYYSNWYQQRPGQAPVLVLYGNNRRPPGIPARFSGSHSGNTGSLIITGAQAEDEAEYHCAARDSSGDHVVFGGGTKVTVL
Take B1: the binding result in test [1] is listed as “binds”.

Consider MLMVTLSPTKDFWLHANNKEHSVELHK [IL-33 tryptic epitope peptide (full length synthetic epitope peptide)], for which the binding entry in test [2] was “binds”.

B2: IL330425 (antibody, V domains shown)
VH: QVQLVQSGGGVVQPGRSLRLSCAASGFTFSEYSMHWVRQAPGKGLEYVSTISSNGAGTYYADSVKGRVTISRDNSKNTLYVQMSSLRPEDTAVYYCVKSLTKYPYGNYFDYWGRGTTVTVSS
VL: SSELTQDPAVSVALGQTVRITCQGDSLRSYYASWYQQKPGQAPVLVIYGKNNRPSGIPDRFSGSSSGNTASLTITRAQAEDEADYYCNSRDSSGNHVVFGGGTKLTVL
Regarding B2, the binding result in test [1] is “binds”.

B3: H338L293 (SEQ ID NOs 182 and 187) (antibody, V domains shown)
VH: EVQLLESGGGLVQPGGSLRLSCAASGFTFSSYAMSWVRQAPGKGLEWVSAISPREGWQYYADSVKGRFTISRDNSKNTLYLQMNSLRAEDTAVYYCVRVVAGYFDSWGRGTLVTVSS
VL: SYELMQPPSVSVSPGQTARITCSGDALPKQYAHWYQQKPGQAPVLVIYKDTERPSGIPERFSGSSSGTTVTLTISGVQAEDEADYYCMSSDPSGASRVFGGGTKLTVL
As for B3, the binding entry in test [3] and in test [4] was “binds” in each case.

For LSPTKDFWLHANNKEHSVELHK [Truncated IL-33 epitope peptide], the binding result in test [2] is listed as “binds”.

(Values after patent US20200353078A1.)
